Measured values from the supplement of paper PMC10849652.
Some of the results follow.

Amino acid sequences for entries named in this document (tags omitted). A change or cut given only in a name is not applied to a line headed by its entry.
UniProt Q14444, whole entry, looked up: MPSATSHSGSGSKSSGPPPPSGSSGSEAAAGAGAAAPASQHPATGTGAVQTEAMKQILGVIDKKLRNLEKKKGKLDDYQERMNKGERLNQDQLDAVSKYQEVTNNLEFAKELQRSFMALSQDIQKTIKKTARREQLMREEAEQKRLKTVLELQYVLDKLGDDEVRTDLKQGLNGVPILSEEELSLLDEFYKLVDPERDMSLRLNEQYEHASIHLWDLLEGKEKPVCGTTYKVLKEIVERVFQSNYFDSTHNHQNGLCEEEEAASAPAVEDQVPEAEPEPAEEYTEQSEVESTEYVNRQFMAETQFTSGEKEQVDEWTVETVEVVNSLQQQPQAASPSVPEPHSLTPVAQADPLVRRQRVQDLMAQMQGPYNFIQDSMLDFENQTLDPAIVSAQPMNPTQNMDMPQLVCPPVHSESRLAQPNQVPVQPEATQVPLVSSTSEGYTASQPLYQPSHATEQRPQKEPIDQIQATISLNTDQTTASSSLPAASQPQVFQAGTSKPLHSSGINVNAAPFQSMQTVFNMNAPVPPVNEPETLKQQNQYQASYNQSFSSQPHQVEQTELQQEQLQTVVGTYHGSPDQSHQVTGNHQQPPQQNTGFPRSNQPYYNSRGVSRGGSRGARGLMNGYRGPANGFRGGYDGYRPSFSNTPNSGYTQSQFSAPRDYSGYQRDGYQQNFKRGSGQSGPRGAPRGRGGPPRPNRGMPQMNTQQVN
UniProt Q8TCD1: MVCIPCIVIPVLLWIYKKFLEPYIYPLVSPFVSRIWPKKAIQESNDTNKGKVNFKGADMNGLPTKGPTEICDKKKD
UniProt P27482, whole entry, looked up: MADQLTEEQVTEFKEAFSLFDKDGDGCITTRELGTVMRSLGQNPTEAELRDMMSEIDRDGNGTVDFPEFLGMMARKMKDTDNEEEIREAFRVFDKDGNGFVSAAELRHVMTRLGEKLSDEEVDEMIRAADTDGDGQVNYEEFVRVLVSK
UniProt Q5SQH8: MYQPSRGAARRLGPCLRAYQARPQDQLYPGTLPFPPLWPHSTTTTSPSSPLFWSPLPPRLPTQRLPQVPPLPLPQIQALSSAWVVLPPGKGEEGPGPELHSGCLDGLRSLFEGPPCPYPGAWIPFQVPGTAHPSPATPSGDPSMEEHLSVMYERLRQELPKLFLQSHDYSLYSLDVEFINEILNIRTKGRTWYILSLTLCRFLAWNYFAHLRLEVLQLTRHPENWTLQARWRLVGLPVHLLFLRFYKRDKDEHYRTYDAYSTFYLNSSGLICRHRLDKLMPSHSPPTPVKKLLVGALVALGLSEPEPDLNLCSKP
UniProt Q9UFG5: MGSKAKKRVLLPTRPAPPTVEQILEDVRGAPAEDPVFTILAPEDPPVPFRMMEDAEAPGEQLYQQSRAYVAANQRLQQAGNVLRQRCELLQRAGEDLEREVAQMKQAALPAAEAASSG
UniProt Q86VP6: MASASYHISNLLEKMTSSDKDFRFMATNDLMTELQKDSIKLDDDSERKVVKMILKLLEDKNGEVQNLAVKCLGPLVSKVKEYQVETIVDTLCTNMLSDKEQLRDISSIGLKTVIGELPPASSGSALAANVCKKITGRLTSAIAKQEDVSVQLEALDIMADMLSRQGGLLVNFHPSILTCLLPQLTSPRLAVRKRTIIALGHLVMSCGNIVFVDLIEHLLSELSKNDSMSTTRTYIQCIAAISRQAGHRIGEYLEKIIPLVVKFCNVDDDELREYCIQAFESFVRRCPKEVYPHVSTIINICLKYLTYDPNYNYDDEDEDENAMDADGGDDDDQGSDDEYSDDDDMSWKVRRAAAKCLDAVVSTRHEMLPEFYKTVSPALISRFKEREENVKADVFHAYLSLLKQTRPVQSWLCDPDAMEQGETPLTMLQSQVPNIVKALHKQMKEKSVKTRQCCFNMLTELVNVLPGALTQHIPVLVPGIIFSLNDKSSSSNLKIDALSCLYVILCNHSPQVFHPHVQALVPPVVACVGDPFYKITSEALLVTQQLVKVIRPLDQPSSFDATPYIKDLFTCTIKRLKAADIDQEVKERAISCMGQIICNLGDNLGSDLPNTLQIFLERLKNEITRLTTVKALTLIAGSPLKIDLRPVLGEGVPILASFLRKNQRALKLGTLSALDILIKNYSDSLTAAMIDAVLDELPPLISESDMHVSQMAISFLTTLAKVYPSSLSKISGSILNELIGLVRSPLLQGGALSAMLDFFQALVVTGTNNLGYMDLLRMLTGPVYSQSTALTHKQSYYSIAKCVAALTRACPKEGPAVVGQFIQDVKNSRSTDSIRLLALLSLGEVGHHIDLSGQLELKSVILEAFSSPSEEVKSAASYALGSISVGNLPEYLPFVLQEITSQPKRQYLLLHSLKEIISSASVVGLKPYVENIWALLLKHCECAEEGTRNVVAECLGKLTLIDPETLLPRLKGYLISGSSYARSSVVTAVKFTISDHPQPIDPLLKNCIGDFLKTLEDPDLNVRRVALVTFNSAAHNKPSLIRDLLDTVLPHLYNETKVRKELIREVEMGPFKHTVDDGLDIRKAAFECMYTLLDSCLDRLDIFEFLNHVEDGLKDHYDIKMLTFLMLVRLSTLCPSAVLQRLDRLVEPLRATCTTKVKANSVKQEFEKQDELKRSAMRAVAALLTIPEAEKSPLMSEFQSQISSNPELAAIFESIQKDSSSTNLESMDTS
UniProt P10643, whole entry, looked up: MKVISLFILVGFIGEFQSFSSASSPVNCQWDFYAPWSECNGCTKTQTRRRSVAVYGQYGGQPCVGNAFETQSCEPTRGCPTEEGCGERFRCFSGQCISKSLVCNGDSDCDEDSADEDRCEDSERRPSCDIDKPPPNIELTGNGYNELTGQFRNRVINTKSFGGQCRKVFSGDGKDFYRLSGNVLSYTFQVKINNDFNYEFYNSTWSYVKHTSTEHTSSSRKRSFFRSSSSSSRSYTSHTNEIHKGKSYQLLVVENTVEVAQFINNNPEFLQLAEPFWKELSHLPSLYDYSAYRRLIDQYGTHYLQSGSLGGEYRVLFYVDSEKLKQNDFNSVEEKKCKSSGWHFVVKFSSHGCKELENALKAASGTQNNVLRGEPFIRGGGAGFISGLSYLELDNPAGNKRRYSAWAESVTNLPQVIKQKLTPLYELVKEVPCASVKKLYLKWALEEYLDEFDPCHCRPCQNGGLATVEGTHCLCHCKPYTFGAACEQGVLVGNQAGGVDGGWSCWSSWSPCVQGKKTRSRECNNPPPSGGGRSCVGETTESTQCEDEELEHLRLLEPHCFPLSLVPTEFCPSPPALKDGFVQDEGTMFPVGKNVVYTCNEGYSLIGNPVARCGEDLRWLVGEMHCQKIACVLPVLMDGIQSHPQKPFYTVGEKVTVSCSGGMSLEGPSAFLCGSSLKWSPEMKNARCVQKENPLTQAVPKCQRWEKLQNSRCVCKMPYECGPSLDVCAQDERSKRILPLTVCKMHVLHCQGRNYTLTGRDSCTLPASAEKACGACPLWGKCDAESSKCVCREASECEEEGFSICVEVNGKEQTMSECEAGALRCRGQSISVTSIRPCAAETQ
UniProt Q96L46: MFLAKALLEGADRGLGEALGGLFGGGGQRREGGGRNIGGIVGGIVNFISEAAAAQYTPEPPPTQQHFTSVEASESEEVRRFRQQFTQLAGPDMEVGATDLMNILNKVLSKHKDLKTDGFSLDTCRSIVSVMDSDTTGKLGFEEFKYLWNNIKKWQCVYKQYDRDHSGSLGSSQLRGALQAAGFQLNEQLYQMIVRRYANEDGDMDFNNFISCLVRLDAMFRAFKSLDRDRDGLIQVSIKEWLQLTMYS
UniProt P41223: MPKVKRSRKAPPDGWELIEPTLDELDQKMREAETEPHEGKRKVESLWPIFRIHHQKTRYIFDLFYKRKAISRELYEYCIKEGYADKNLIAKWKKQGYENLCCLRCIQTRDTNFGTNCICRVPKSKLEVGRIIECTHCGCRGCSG
UniProt Q6PH81: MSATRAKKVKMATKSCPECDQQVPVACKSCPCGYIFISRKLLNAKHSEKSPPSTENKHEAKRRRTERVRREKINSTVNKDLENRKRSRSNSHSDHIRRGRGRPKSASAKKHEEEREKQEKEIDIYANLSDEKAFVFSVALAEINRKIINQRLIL
UniProt Q9NX04: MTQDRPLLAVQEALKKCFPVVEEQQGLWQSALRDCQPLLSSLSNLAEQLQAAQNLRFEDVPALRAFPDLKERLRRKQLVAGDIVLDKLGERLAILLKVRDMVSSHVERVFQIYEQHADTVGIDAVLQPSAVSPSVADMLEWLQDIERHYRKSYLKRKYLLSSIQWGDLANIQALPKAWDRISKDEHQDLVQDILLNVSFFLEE
UniProt Q9HB71, whole entry, looked up: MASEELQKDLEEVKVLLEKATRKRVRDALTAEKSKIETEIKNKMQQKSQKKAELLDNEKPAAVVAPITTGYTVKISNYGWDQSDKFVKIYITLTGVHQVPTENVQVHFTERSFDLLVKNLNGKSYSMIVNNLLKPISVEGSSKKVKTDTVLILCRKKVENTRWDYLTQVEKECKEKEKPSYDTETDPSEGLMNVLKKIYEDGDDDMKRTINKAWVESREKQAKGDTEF
UniProt O43852: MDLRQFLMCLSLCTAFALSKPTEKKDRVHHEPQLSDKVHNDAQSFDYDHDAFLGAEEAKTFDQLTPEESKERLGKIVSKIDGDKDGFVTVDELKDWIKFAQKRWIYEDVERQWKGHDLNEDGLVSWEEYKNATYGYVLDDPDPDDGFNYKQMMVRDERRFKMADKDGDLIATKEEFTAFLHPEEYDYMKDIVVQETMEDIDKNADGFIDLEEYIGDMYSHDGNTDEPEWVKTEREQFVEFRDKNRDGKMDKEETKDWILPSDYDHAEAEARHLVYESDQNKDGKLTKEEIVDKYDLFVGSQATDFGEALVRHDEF
UniProt O43684, whole entry, looked up: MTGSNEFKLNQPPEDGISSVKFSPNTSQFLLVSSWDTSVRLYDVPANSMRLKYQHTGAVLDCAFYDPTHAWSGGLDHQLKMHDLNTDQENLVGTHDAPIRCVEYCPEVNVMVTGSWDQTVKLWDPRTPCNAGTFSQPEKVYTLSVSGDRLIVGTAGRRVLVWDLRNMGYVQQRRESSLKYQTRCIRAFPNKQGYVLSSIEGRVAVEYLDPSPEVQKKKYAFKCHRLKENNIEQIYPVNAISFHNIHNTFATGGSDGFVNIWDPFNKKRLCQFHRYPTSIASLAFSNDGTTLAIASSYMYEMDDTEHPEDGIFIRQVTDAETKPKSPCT
UniProt Q9NSK7: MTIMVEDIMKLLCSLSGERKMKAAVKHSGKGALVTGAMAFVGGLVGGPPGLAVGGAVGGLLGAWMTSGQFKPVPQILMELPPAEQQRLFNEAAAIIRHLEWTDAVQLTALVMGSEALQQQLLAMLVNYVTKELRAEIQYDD
UniProt Q9Y376: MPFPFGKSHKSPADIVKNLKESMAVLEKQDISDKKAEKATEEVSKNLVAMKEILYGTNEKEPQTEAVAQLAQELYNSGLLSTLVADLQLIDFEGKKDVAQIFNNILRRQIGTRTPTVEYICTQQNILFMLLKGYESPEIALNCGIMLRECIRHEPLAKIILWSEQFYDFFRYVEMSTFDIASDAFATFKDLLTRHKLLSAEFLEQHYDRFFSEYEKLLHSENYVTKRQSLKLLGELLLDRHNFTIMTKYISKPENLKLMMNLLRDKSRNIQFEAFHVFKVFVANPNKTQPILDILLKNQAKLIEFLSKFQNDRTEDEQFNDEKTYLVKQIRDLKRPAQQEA
UniProt Q9BV19: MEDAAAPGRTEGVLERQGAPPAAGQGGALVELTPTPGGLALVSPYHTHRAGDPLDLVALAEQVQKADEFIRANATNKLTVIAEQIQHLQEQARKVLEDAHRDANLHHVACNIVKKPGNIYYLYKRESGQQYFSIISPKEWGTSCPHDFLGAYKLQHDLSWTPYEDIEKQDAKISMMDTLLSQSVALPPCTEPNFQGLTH
UniProt Q9H0W9: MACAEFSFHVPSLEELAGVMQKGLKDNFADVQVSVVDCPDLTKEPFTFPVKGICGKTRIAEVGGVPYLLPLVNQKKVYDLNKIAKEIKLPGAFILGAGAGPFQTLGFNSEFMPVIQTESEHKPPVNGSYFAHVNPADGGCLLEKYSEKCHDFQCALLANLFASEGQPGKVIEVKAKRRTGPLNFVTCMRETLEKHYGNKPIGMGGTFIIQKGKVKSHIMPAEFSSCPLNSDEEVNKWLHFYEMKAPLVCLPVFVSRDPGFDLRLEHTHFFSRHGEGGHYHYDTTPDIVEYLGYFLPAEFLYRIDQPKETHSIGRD
UniProt Q5JPI3: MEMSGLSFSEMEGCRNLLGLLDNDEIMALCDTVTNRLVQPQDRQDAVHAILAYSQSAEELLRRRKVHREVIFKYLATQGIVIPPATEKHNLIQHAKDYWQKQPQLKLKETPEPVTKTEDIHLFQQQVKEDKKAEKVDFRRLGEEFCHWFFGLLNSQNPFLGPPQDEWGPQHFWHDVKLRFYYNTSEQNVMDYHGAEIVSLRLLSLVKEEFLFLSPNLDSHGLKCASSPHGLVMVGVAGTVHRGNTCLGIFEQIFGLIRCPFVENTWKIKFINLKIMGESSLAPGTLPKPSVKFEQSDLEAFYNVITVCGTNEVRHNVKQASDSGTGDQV

compound: c1cn2cc(-c3ccc4cn[nH]c4c3)nc(Nc3ccc(N4CCOCC4)cc3)c2n1 [entospletinib]; experiment: log2 fold change, soluble protein after heating vs DMSO (PISA); higher = thermal stabilisation; K562 cells, 10 uM, 30 min; active = over 0.2 and 3.5 SD of the protein, either way, in both replicates (recomputed)
In short: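 K562 cells at 2×10^6 cells/mL were given 10 μM compound for 30 min. Aliquots then went through 3 min of heating across 48°C-58°C, were pooled, and were extracted in PBS with 0.5% NP-40 at 4°C, and the supernatant after 21,000xg for 90 min was quantified by TMTpro 16plex LC-MS/MS with channel sums equalised. Thermal stability relative to control samples, from duplicates, is given as log2 fold change.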

log2 fold change, inactive:
CAPRIN1 (UniProt Q14444) 0.126
C18orf32 (UniProt Q8TCD1) 0.017
CALML3 (UniProt P27482) -0.001
CAPZA2 (UniProt P47755) 0.001
C3orf33 (UniProt Q6P1S2) 0.037
CARD8 isoform 5 (UniProt Q9Y2G2) 0.074
C18orf25 (UniProt Q96B23) 0.007
C6orf136 isoform 4 (UniProt Q5SQH8) 0.151
C19orf25 (UniProt Q9UFG5) -0.029
CAND1 (UniProt Q86VP6) -0.019
C7 (UniProt P10643) 0.29
CAPNS2 (UniProt Q96L46) -0.303
BUD31 (UniProt P41223) 0.025
C11orf74 (UniProt Q86VG3) 0.001
C1orf174 (UniProt Q8IYL3) 0.069
C17orf80 (UniProt Q9BSJ5) -0.116
CAPG (UniProt P40121) -0.026
CAPN1 (UniProt P07384) -0.039
C6orf89 isoform 2 (UniProt Q6UWU4) -0.024
C16orf87 (UniProt Q6PH81) -0.032
C1orf109 (UniProt Q9NX04) -0.004
CACYBP (UniProt Q9HB71) -0.006
CAPN1 (UniProt E9PLX0) 0.154
CALU isoform 3 (UniProt O43852) 0.005
BUB3 (UniProt O43684) -0.025
C19orf12 (UniProt Q9NSK7) -0.175
BTF3L4 (UniProt Q96K17) -0.009
CAB39 (UniProt Q9Y376) -0.009
C1orf50 (UniProt Q9BV19) 0.035
C11orf54 (UniProt Q9H0W9) 0.049
C3orf38 (UniProt Q5JPI3) -0.008

Fetched one by one from the list above, 2 records:
log2 fold change, inactive:
CAND1 (UniProt Q86VP6) -0.019
CACYBP (UniProt Q9HB71) -0.006
